Assay results published in paper PMC12431856.
The exact form of at least one protein or probe is not confirmed. At least one verdict rests on a figure or table, not on a statement of the authors.

Protein sequences, listed by entry. Tags and fused reporters are not part of them. Residues count along the entry.
UniProt C9JLR9, 81-172: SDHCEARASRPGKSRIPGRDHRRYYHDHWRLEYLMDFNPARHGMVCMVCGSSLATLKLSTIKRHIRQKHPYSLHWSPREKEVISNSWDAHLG

Biological target: MBP-ZF1 (UniProt C9JLR9)
Test: fluorescence polarization
Settings: FP: 25 mM citrate pH 5.6, 150 mM NaCl, 0.5 mM TCEP, 100 nM DNA, 15 nM-7.5 uM protein, 20 min, room temperature; recombinant protein; residues 81-172; protein details: N-terminal His6-MBP with TEV site; label: 5'-Cy5 on top strand

## GATCCATGGCCCCATGGATG (double strand) [Cy5 PLAGL motif DNA]
  binding result: binds
